Taken from: PubChem BioAssay AID1259254 (NCATS, 2017)
Aim: 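Finding genes that stop cells copying their DNA twice in one cycle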 (primary screen). Cells: human HCT116 colorectal cancer cells. Reagents: single siRNA against human genes. Time to read-out: 3 days. Measurement: 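Nuclei stained with Hoechst and imaged; cell-cycle phase assigned by DNA content; G2 share scaled per plate, non-targeting siRNA 0%, GMNN siRNA 100%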. Reading the numbers: G2 robust z-score and G2 cells, % of GMNN control: higher = more G2 cells, more excess DNA replication; raw share of cells in G2: higher = larger share of cells with G2 DNA content. Hit rule: 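Active siRNAs have a G2 robust z of 5 or more median absolute deviations over the median, which in these data means about 38% or higher of GMNN control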.
This is an unselected part of about 59,000 reagents. About 1,550 of all reagents (2.6%) were called active. 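G2 share is only a proxy for re-replication; each gene was hit by three separate siRNAs, and active genes were retested.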 The raw values are shown without normalisation. Reagents against one gene are numbered here. No sequences are given here. Not given: the amount of reagent.

no.	target gene	reagent no.	G2 robust z-score	G2 cells, % of GMNN control	raw share of cells in G2 (%)	outcome
1	TPM3 (tropomyosin 3)	1	2.44	20.2	14.1	inactive
2	TPM3 (tropomyosin 3)	2	0.313	5.17	6.19	inactive
3	TPM3 (tropomyosin 3)	3	1.07	10.5	7.94	inactive
4	RAB22A (RAB22A, member RAS oncogene family)	1	0.477	6.32	8.27	inactive
5	RAB22A (RAB22A, member RAS oncogene family)	2	0.029	3.17	5.47	inactive
6	RAB22A (RAB22A, member RAS oncogene family)	3	-0.764	-2.41	3.35	inactive
7	STIL (STIL centriolar assembly protein)	1	1.1	10.7	9.54	inactive
8	STIL (STIL centriolar assembly protein)	2	1.27	11.9	8.93	inactive
9	STIL (STIL centriolar assembly protein)	3	1.98	16.9	9.45	inactive
10	CBX6 (chromobox 6)	1	1.64	14.5	9.86	inactive
11	CBX6 (chromobox 6)	2	-0.243	1.26	4.48	inactive
12	CBX6 (chromobox 6)	3	-0.289	0.931	3.62	inactive
13	DNAJC11 (DnaJ heat shock protein family (Hsp40) member C11)	1	-0.18	1.7	3.39	inactive
14	DNAJC11 (DnaJ heat shock protein family (Hsp40) member C11)	2	-0.128	2.06	6.84	inactive
15	DNAJC11 (DnaJ heat shock protein family (Hsp40) member C11)	3	1.34	12.4	7.52	inactive

3 consecutive entries from above, quoted:
no.	target gene	reagent no.	G2 robust z-score	G2 cells, % of GMNN control	raw share of cells in G2 (%)	outcome
4	RAB22A (RAB22A, member RAS oncogene family)	1	0.477	6.32	8.27	inactive
5	RAB22A (RAB22A, member RAS oncogene family)	2	0.029	3.17	5.47	inactive
6	RAB22A (RAB22A, member RAS oncogene family)	3	-0.764	-2.41	3.35	inactive

Further results follow:
no.	target gene	reagent no.	G2 robust z-score	G2 cells, % of GMNN control	raw share of cells in G2 (%)	outcome
16	BTG2-DT (BTG2 divergent transcript)	1	0.00728	3.02	4.74	inactive
17	BTG2-DT (BTG2 divergent transcript)	2	-0.548	-0.888	3.17	inactive
18	BTG2-DT (BTG2 divergent transcript)	3	-1.12	-4.91	1.75	inactive
19	EIF5 (eukaryotic translation initiation factor 5)	1	1.49	13.5	10.1	inactive
20	EIF5 (eukaryotic translation initiation factor 5)	2	0.0445	3.28	6.51	inactive
21	EIF5 (eukaryotic translation initiation factor 5)	3	5.17	39.4	17.7	active
22	RNF25 (ring finger protein 25)	1	1.32	12.3	7.13	inactive
23	RNF25 (ring finger protein 25)	2	1.07	10.5	10.6	inactive
24	RNF25 (ring finger protein 25)	3	-0.928	-3.56	2.51	inactive
25	CUBN (cubilin)	1	-0.433	-0.0758	5.57	inactive
26	CUBN (cubilin)	2	-0.0353	2.72	5.37	inactive
27	CUBN (cubilin)	3	3.23	25.7	13.8	inactive
28	CACNA1B (calcium voltage-gated channel subunit alpha1 B)	1	0.811	8.68	8.45	inactive
29	CACNA1B (calcium voltage-gated channel subunit alpha1 B)	2	2.94	23.6	12.8	inactive
30	CACNA1B (calcium voltage-gated channel subunit alpha1 B)	3	0.551	6.84	7.05	inactive
